The results in this text go back to paper PMC10363768.

One experiment deals with BK-OsOTUB1.1 (rice). As to the kind of experiment: two-hybrid; Gal4 system, bait in pGBKT7 and prey in pGADT7 co-transformed into yeast AH109; growth on dropout medium lacking Leu, Trp, His and Ade for 5 days.
A further experiment has as its target BK-OsUbc13 (rice). The description is as above.
For another experiment, the target named is OsUEV1B (rice). The description is as above.
Another experiment concerns the target OsUbc13-eGFP (rice). As to the kind of experiment: co-IP; total protein of infiltrated N. benthamiana leaves; anti-GFP agarose beads, 2 h at 4 °C; 50 mM Tris-HCl pH 7.5, 100 mM NaCl, 1 mM EDTA; immunoblot with anti-GFP and anti-OsSnRK1a.
A further experiment concerns the target OsOTUB1.1-nYFP (rice). As to the kind of experiment: split reporter; BiFC; nYFP and cYFP fusions co-expressed in N. benthamiana leaves by Agrobacterium infiltration, 2 days, confocal microscopy (514 nm laser).
For a further experiment, the target named is OsUbc13-nYFP (rice). The experiment is described as above.
For the next experiment, the target named is cLuc-OsOTUB1.1 (rice). Description: split reporter; firefly split-luciferase complementation imaging (LCI); nLuc and cLuc fusions co-expressed in N. benthamiana leaves by Agrobacterium infiltration, 2 days, 1 mM luciferin, cooled CCD imaging.
For another experiment, the target named is cLuc-OsUbc13 (rice). Described as above.
The target of the next experiment is OsOTUB1.1-cYFP (rice). Description: split reporter; BiFC; nYFP and cYFP fusions co-expressed in N. benthamiana leaves by Agrobacterium infiltration, 2 days, confocal microscopy (514 nm laser).
Another experiment addresses OsUbc13-cYFP (rice). Described as above.

Positions count from the first letter of the chain named. Numbers in names are those of the source. No constants are given. Whether binding was seen depends on the method and setting. A result given as binding can be weak or reduced; the word gives no strength. For some of these results: Tags and fused reporters may be left off the sequences shown. For some of these results: In cells and extracts the contact can be indirect.

B1: AD-OsSnRK1a^287–505 (domain or fragment, UniProt Q852Q2 287-505)
chain: KLDDETLNDVINMGFDKNQLIESLHKRLQNEATVAYYLLLDNRLRTTSGYLGAEFHESMESSLAQVTPAETPNSATDHRQHGHMESPGFGLRHHFAADRKWALGLQSRAHPREIITEVLKALQELNVCWKKIGHYNMKCRWSPSFPSHESMMHNNHGFGAESAIIETDDSEKSTHTVKFEIQLYKTRDEKYLLDLQRVSGPQLLFLDLCSAFLTQLRVL
With B1, the binding result with BK-OsOTUB1.1 (rice) and in the experiment with BK-OsUbc13 (rice) was “binds” each time.

B2: AD-OsSnRK1a^328–505 (domain or fragment, UniProt Q852Q2 328-505)
chain: NRLRTTSGYLGAEFHESMESSLAQVTPAETPNSATDHRQHGHMESPGFGLRHHFAADRKWALGLQSRAHPREIITEVLKALQELNVCWKKIGHYNMKCRWSPSFPSHESMMHNNHGFGAESAIIETDDSEKSTHTVKFEIQLYKTRDEKYLLDLQRVSGPQLLFLDLCSAFLTQLRVL
Turning to B2, the binding result with BK-OsOTUB1.1 (rice) and with BK-OsUbc13 (rice) was “binds” in each case.

As for SEKSTHTVKFEIQLYKTRDEKYLLDLQRVSGPQLLFLDLCSAFLTQLRVL (domain or fragment, UniProt Q852Q2 456-505) [AD-OsSnRK1a^456–505], the binding entry with BK-OsOTUB1.1 (rice) and with BK-OsUbc13 (rice) was “no binding” each time.

B3: AD-OsSnRK1a (enzyme, UniProt Q852Q2 1-505)
chain: MEGAGRDGNPLGGYRIGKTLGIGSFGKVKIAEHILTGHKVAIKILNRRKIKSMEMEEKVKREIKILRLFMHPHIIRLYEVIDTPADIYVVMEYVKSGELFDYIVEKGRLQEEEARRFFQQIISGVEYCHRNMVVHRDLKPENLLLDSKCNVKIADFGLSNVMRDGHFLKTSCGSPNYAAPEVISGKLYAGPEVDVWSCGVILYALLCGTLPFDDENIPNLFKKIKGGIYTLPSHLSPLARDLIPRMLVVDPMKRITIREIREHQWFTVGLPRYLAVPPPDTAQQVKKLDDETLNDVINMGFDKNQLIESLHKRLQNEATVAYYLLLDNRLRTTSGYLGAEFHESMESSLAQVTPAETPNSATDHRQHGHMESPGFGLRHHFAADRKWALGLQSRAHPREIITEVLKALQELNVCWKKIGHYNMKCRWSPSFPSHESMMHNNHGFGAESAIIETDDSEKSTHTVKFEIQLYKTRDEKYLLDLQRVSGPQLLFLDLCSAFLTQLRVL
On to B3, for which the binding entry in the experiment with BK-OsOTUB1.1 (rice), with BK-OsUbc13 (rice) and with OsUEV1B (rice) was “binds” throughout.

B4: OsSnRK1a (enzyme, UniProt Q852Q2 1-505)
chain: B3 chain
For the molecule B4, the binding result with OsUbc13-eGFP (rice) was “binds”.

B5: AD-OsSnRK1a^K43M (enzyme, UniProt Q852Q2 1-505)
chain: B3 chain with K43M
Take B5: the binding result in the experiment with BK-OsUbc13 (rice) is listed as “binds”.

B6: OsSnRK1a-cYFP (enzyme, UniProt Q852Q2 1-505)
chain: B3 chain
Regarding B6, the binding entry with OsOTUB1.1-nYFP (rice) and in the experiment with OsUbc13-nYFP (rice) was “binds” throughout.

B7: OsSnRK1a^K139R (enzyme, UniProt Q852Q2 1-505)
chain: B3 chain with K139R
Regarding B7, the binding result with BK-OsUbc13 (rice) is listed as “binds”.

B8: OsSnRK1a-nLuc (enzyme, UniProt Q852Q2 1-505)
chain: B3 chain
As to B8, the binding entry with cLuc-OsOTUB1.1 (rice) and with cLuc-OsUbc13 (rice) was “binds” throughout.

B9: OsSnRK1a-nYFP (enzyme, UniProt Q852Q2 1-505)
chain: B3 chain
As for B9, the binding entry with OsOTUB1.1-cYFP (rice) and with OsUbc13-cYFP (rice) was “binds” in each case.

B10: AD-OsYchF1 (protein, UniProt Q6Z1J6 1-394)
chain: MPPKASKKDAAPAERPILGRFSSHLKIGIVGLPNVGKSTFFNIVTKLSIPAENFPFCTIDPNEARVYVPDERFDWLCQLYKPKSEVSAYLEINDIAGLVRGAHAGEGLGNAFLSHIRAVDGIFHVLRAFEDKEVTHIDDSVDPVRDLETIGEELRLKDIEFVQNKIDDLEKSMKRSNDKQLKLEHELCEKVKAHLEDGKDVRFGDWKSADIEILNTFQLLTAKPVVYLVNMSEKDYQRKKNKFLPKIHAWVQEHGGETIIPFSCAFERLLADMPPDEAAKYCAENQIASVIPKIIKTGFAAIHLIYFFTAGPDEVKCWQIRRQTKAPQAAGTIHTDFERGFICAEVMKFDDLKELGSESAVKAAGKYRQEGKTYVVQDGDIIFFKFNVSGGGKK
Consider B10, for which the binding entry in the experiment with BK-OsUbc13 (rice) was “no binding”.

B11: AD-OsCPI (protein, UniProt Q6I570 1-184)
chain: MLRRRGFCCCSGAPAAAAAALLLLAVAAAAPRAAGFHLGGDESVLVRGMLAAIRREQAEAEDAARFAVAEYNKNQGAELEFARIVKAKRQVVTGTLHDLMLEVVDSGKKSLYSAKVWVKPWLDFKAVVEFRHVGDSQSQSATAADDNAGQDTADPTVASRNDLHNTENNKVSVVLSTFSQTYSV
In the case of B11, the binding result with BK-OsUbc13 (rice) is “no binding”.

B12: AD-OsSnRK1a^1–327 (domain or fragment, UniProt Q852Q2 1-327)
chain: MEGAGRDGNPLGGYRIGKTLGIGSFGKVKIAEHILTGHKVAIKILNRRKIKSMEMEEKVKREIKILRLFMHPHIIRLYEVIDTPADIYVVMEYVKSGELFDYIVEKGRLQEEEARRFFQQIISGVEYCHRNMVVHRDLKPENLLLDSKCNVKIADFGLSNVMRDGHFLKTSCGSPNYAAPEVISGKLYAGPEVDVWSCGVILYALLCGTLPFDDENIPNLFKKIKGGIYTLPSHLSPLARDLIPRMLVVDPMKRITIREIREHQWFTVGLPRYLAVPPPDTAQQVKKLDDETLNDVINMGFDKNQLIESLHKRLQNEATVAYYLLLD
Consider B12, for which the binding result with BK-OsOTUB1.1 (rice) and with BK-OsUbc13 (rice) was “no binding” each time.

B13: AD-OsSnRK1a^1–286 (domain or fragment, UniProt Q852Q2 1-286)
chain: MEGAGRDGNPLGGYRIGKTLGIGSFGKVKIAEHILTGHKVAIKILNRRKIKSMEMEEKVKREIKILRLFMHPHIIRLYEVIDTPADIYVVMEYVKSGELFDYIVEKGRLQEEEARRFFQQIISGVEYCHRNMVVHRDLKPENLLLDSKCNVKIADFGLSNVMRDGHFLKTSCGSPNYAAPEVISGKLYAGPEVDVWSCGVILYALLCGTLPFDDENIPNLFKKIKGGIYTLPSHLSPLARDLIPRMLVVDPMKRITIREIREHQWFTVGLPRYLAVPPPDTAQQVK
Consider B13, for which the binding entry in the experiment with BK-OsOTUB1.1 (rice) and in the experiment with BK-OsUbc13 (rice) was “no binding” each time.

B14: AD-OsSnRK1a^1–455 (domain or fragment, UniProt Q852Q2 1-455)
chain: MEGAGRDGNPLGGYRIGKTLGIGSFGKVKIAEHILTGHKVAIKILNRRKIKSMEMEEKVKREIKILRLFMHPHIIRLYEVIDTPADIYVVMEYVKSGELFDYIVEKGRLQEEEARRFFQQIISGVEYCHRNMVVHRDLKPENLLLDSKCNVKIADFGLSNVMRDGHFLKTSCGSPNYAAPEVISGKLYAGPEVDVWSCGVILYALLCGTLPFDDENIPNLFKKIKGGIYTLPSHLSPLARDLIPRMLVVDPMKRITIREIREHQWFTVGLPRYLAVPPPDTAQQVKKLDDETLNDVINMGFDKNQLIESLHKRLQNEATVAYYLLLDNRLRTTSGYLGAEFHESMESSLAQVTPAETPNSATDHRQHGHMESPGFGLRHHFAADRKWALGLQSRAHPREIITEVLKALQELNVCWKKIGHYNMKCRWSPSFPSHESMMHNNHGFGAESAIIETDD
As to B14, the binding result with BK-OsOTUB1.1 (rice) and in the experiment with BK-OsUbc13 (rice) was “no binding” each time.

B15: OsSnRK1a^1–455-cYFP (domain or fragment, UniProt Q852Q2 1-455)
chain: B14 chain
With B15, in the experiment with OsOTUB1.1-nYFP (rice), the binding result is on record as “no binding”.

B16: OsSnRK1a^1–455-nYFP (domain or fragment, UniProt Q852Q2 1-455)
chain: B14 chain
For the molecule B16, the binding result with OsOTUB1.1-cYFP (rice) is listed as “no binding”.
